According to PubChem BioAssay AID2685 (National Center for Advancing Translational Sciences (NCATS), 2010):
This is one part of the list. The main result of the screen is listed elsewhere. These columns were measured beside it and carry no call. Compounds called inactive in the main read-out are mostly missing here. The note in brackets gives the kind of curve behind each potency; many fits are weak.

Test: qHTS Assay for Lipid Storage Modulators in Drosophila S3 Cells;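 on cell number change: cells counted by Cell Tracker Red CMTPX staining in the red channel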
Conditions: BODIPY lipid droplet fluorescence, 18-24 h; for cell number change: measured here: cell count max response, cells fed with added oleic acid
Outline: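 Drosophila S3 cells got compounds at several concentrations plus oleic acid (400 uM solution). Laser-scanning cytometry with 488 nm excitation read lipid droplets at 500-530 nm and cells at 575-640 nm. Percent activity was relative to 20 uM Triacsin C.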

[1] = measured here: cell number channel AC50, cells fed with added oleic acid
[2] = measured here: lipid fluorescence (Fed channel) AC50, cells fed with added oleic acid

In the case of `Cc1c(F)cccc1NS(=O)(=O)c1ccc2c(c1)NC(=O)CO2`, the cell number change is reported as 22.4% and the AC50 [1] is reported as 6.51 µM [falling, single point].

For `Cc1oc(-c2ccc(Cl)cc2)nc1CN1CCCC(C(=O)NCc2cccnc2)C1` (stereo unspecified), the cell number change was 21.3% and the AC50 [2] was 20.6 µM [rising, single point].

With `CC(C(=O)Nc1ccc(Cl)cc1)N1C(=O)NC2(CCCC2)C1=O` (stereo unspecified) the cell number change was 15.3% and the AC50 [2] was 6.51 µM [falling, single point].

For `CCOc1ccc(NC(=O)COc2ccccc2)c([N+](=O)[O-])c1`, the cell number change was 5.76% and the AC50 [2] was 2.06 µM [falling, partial curve].

With `N#C/C(=C\c1ccccc1)C(=O)Nc1ccccn1` the cell number change was 14.5% and the AC50 [2] was 29.1 µM [rising, single point].

In the case of `Nc1c(-c2ccccc2)c(CN2CCOCC2)nn1-c1ccc(C(=O)O)cc1`, the cell number change is reported as -11.3%.

For `CCCc1cc(=O)[nH]c(SCC(=O)C(C)(C)C)n1`, the cell number change was -27.4%, the AC50 [1] was 0.0366 µM [falling, full curve, poor fit] and the AC50 [2] was 0.92 µM [falling, full curve, poor fit].

In the case of `CN(C)Cc1c(C(=O)N/N=C/c2cccc(OCc3ccc(F)cc3)c2)nnn1-c1nonc1N`, the cell number change is reported as 14.5% and the AC50 [2] is reported as 29.1 µM [rising, single point].

In the case of `COc1ccc(C(=O)C2CCCN(C(=O)c3ccc(CSC)o3)C2)cc1F` (stereo unspecified), the cell number change is reported as -6.07% and the AC50 [2] is reported as 29.1 µM [falling, single point].

Compound `CC(C)Cc1ccc(CN2CCCC(NC(=O)CCn3cnnn3)C2)cc1` (stereo unspecified) has a cell number change of 6.07%.

For `COc1ccc(-n2c(COc3cccc(C)c3)nnc2SCC(=O)NCc2ccco2)cc1`, the cell number change was -176%, the AC50 [1] was 29.1 µM [falling, single point] and the AC50 [2] was 29.1 µM [falling, single point].

`CCCCCOc1ccc(CSCCNC(=S)Nc2ccccc2)cc1` gave a cell number change of -22.5%.

In the case of `CN(C(=O)C1CCCN1S(=O)(=O)c1ccc(Cl)cc1)c1ccccc1` (stereo unspecified), the cell number change is reported as 18.1% and the AC50 [1] is reported as 0.731 µM [falling, single point].

With `COc1ccc(OC)c(-n2c(-c3cc(-c4ccc(F)cc4)n[nH]3)n[nH]c2=S)c1` the cell number change was -26.2% and the AC50 [2] was 32.6 µM [falling, single point].

In the case of `O=C(Nc1ccc(Oc2ccccc2)nc1)C1CCN(Cc2cccc(F)c2)CC1`, the cell number change is reported as -31.2%, the AC50 [1] is reported as 29.1 µM [falling, single point] and the AC50 [2] is reported as 29.1 µM [falling, single point].

For `COCC(=O)Nc1cc(OC)c(Cl)cc1OC`, the cell number change was 169%, the AC50 [1] was 16.4 µM [rising, partial curve] and the AC50 [2] was 29.1 µM [rising, single point].

With `CS(=O)(=O)c1ccc(C(=O)NC(Cc2ccccc2)c2ccccc2)cc1` (stereo unspecified) the cell number change was 20.2% and the AC50 [2] was 32.6 µM [falling, single point].

In the case of `COC(=O)c1ccc(C(=O)Nc2ccc3c(c2)C(=O)NC3=O)cc1`, the cell number change is reported as -21.8% and the AC50 [2] is reported as 29.1 µM [falling, single point].

For `COc1cccc(C2CC(c3cccs3)=NN2C(=O)c2ccco2)c1O` (stereo unspecified), the cell number change was 2.61%.

For `O=c1cc(C(F)(F)F)nc(-c2ccccc2)[nH]1`, the cell number change was -2.39% and the AC50 [2] was 1.16 µM [rising, partial curve].

For `Cc1c(Nc2nc3ccccc3nc2N2CCN(c3ccccc3)CC2)c(=O)n(-c2ccccc2)n1C`, the cell number change was -25.9% and the AC50 [2] was 0.58 µM [rising, single point].

For `NS(=O)(=O)c1ccc(NC(=O)COC(=O)CCc2c[nH]c3ccccc23)cc1`, the cell number change was -39.5%, the AC50 [1] was 0.13 µM [falling, full curve] and the AC50 [2] was 0.517 µM [falling, full curve].

With `COc1ccc(C)cc1N(CC(=O)N1CCCCCC1)S(=O)(=O)c1ccccc1` the cell number change was 5.13%.

For `C[C@H](NS(=O)(=O)c1ccc2c(c1)OCCCO2)C(=O)N1CCN(Cc2ccccc2)CC1`, the cell number change was -50% and the AC50 [1] was 29.1 µM [falling, single point].

For `CCCCC(=O)Nc1ccc2oc(-c3ccncc3)nc2c1`, the cell number change was 232%, the AC50 [1] was 29.1 µM [rising, single point] and the AC50 [2] was 29.1 µM [rising, single point].

In the case of `Cc1cccc(N(CC(=O)Nc2ccc(CC#N)cc2)S(C)(=O)=O)c1`, the cell number change is reported as -155%, the AC50 [1] is reported as 16.4 µM [falling, partial curve] and the AC50 [2] is reported as 23.1 µM [falling, partial curve].

In the case of `CN(c1ccccc1C(=O)NCc1ccccn1)S(C)(=O)=O`, the cell number change is reported as 16.1%, the AC50 [1] is reported as 1.3 µM [falling, full curve, poor fit] and the AC50 [2] is reported as 6.51 µM [falling, single point].

`Cc1cccc(Oc2ccc(NS(=O)(=O)c3ccc(C)c(C(=O)O)c3)cc2)c1` showed a cell number change of 5.29%.

For `O=C(Nc1ccc2c(c1)OCCO2)c1ccccn1`, the AC50 [2] was 0.13 µM [rising, single point].

Compound `COc1cccc(C2C(C(=O)OC(C)C)=C(C)N=c3s/c(=C\c4ccc(C(=O)O)cc4)c(=O)n32)c1` (stereo unspecified) has a cell number change of 17.4%.

In the case of `O=C(CN1C(=O)CSc2ncccc21)NCCN1CCOCC1`, the cell number change is reported as 12% and the AC50 [2] is reported as 0.184 µM [rising, full curve, poor fit].

For `Cc1ccc(NC(=O)CSCC#N)cc1`, the cell number change was 30.9% and the AC50 [1] was 6.51 µM [rising, partial curve].

For `C/C(N)=C(/C#N)C(=O)CSc1nncn1-c1ccccc1`, the AC50 [2] was 6.51 µM [falling, partial curve].

For `CCc1cccc2c(C(=O)CN3C(=O)N(C)C4(CCCCC4)C3=O)c[nH]c12`, the cell number change was -11.7%.

With `COc1ccc(S(=O)(=O)N2CCN(C(=O)c3cc(-c4ccc(Br)cc4)n[nH]3)CC2)cc1OC` the cell number change was -39% and the AC50 [1] was 13 µM [falling, partial curve, poor fit].

With `CCCCC(=O)Nc1cc(C)c(NC(=O)c2cccs2)cn1` the cell number change was 1.01% and the AC50 [2] was 29.1 µM [falling, single point].

For `CCSC1=N/C(=C\c2ccc(C(=O)O)cc2)C(=O)S1`, the cell number change was 3.97% and the AC50 [2] was 5.8 µM [rising, partial curve].

For `Cc1cccc(NS(=O)(=O)c2cccc(C(=O)N3CCN(c4ccccn4)CC3)c2)c1`, the cell number change was -14.4% and the AC50 [2] was 14.1 µM [falling, single point].

For `CCOc1ccccc1NC(=O)CSc1nnc2c(CC)c(C)nc(N)n12`, the AC50 [1] was 4.11 µM [rising, single point] and the AC50 [2] was 2.91 µM [rising, partial curve].
